# Some of the results follow.
# Legend:
# Assay in all cases: glycan array binding signal (z-score within array); higher = stronger binding
# Details in all cases: glycan notation: IUPAC condensed, linker removed
# Fuc(a1-3)GlcNAc = target: Fuc(a1-3)GlcNAc
# How it was run: (§1)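 From the Consortium for Functional Glycomics database, 3228 arrays were curated, keeping only those whose protein sequence was available. Binding is given as a within-array Z-score averaged across arrays sharing a protein sequence and across linkers. Negative Z-scores can be read as non-binding.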
# [1] = target: Fuc(a1-3)[Gal(b1-4)]Glc6S
# How it was run: as §1
# [2] = target: Fuc(a1-3)[Gal(b1-4)]GlcNAc
# How it was run: as §1
# [3] = target: Fuc(a1-3)[Gal(b1-4)]GlcNAc(b1-2)Man
# How it was run: as §1
# [4] = target: Fuc(a1-3)[Gal(b1-4)]GlcNAc(b1-2)Man(a1-3)[Fuc(a1-3)[Gal(b1-4)]GlcNAc(b1-2)Man(a1-6)]Man(b1-4)GlcNAc(b1-4)GlcNAc
# How it was run: as §1
# [5] = target: Fuc(a1-3)[Gal(b1-4)]GlcNAc(b1-2)Man(a1-3)[Fuc(a1-3)[Gal(b1-4)]GlcNAc(b1-2)Man(a1-6)]Man(b1-4)GlcNAc(b1-4)[Fuc(a1-6)]GlcNAc
# How it was run: as §1
# [6] = target: Fuc(a1-3)[Gal(b1-4)]GlcNAc(b1-3)Gal(b1-3)[Fuc(a1-4)]GlcNAc
# How it was run: as §1
# [7] = target: Fuc(a1-3)[Gal(b1-4)]GlcNAc(b1-3)Gal(b1-4)[Fuc(a1-3)]GlcNAc
# How it was run: as §1
# [8] = target: Fuc(a1-3)[Gal(b1-4)]GlcNAc(b1-3)Gal(b1-4)[Fuc(a1-3)]GlcNAc(b1-3)Gal(b1-4)[Fuc(a1-3)]GlcNAc
# How it was run: as §1
# [9] = target: Fuc(a1-3)[Gal(b1-4)]GlcNAc(b1-3)GalNAc
# How it was run: as §1
# [10] = target: Fuc(a1-3)[Gal(b1-4)]GlcNAc(b1-6)GalNAc
# How it was run: as §1
# [11] = target: Fuc(a1-3)[Gal(b1-4)]GlcNAc(b1-6)[Gal(b1-3)GlcNAc(b1-3)]Gal(b1-4)Glc
# How it was run: as §1
# [12] = target: Fuc(a1-3)[Gal(b1-4)]GlcNAc6S
# How it was run: as §1
# [13] = target: Fuc(a1-3)[Gal3S(b1-4)]Glc
# How it was run: as §1
# [14] = target: Fuc(a1-3)[Gal3S(b1-4)]GlcNAc
# How it was run: as §1
# [15] = target: Fuc(a1-3)[Gal3S(b1-4)]GlcNAc6S
# How it was run: as §1
# [16] = target: Fuc(a1-3)[GalNAc(b1-4)]GlcNAc
# How it was run: as §1
# [17] = target: Fuc(a1-3)[GalNAc(b1-4)]GlcNAc6S
# How it was run: as §1
# Fuc(a1-4)GlcNAc = target: Fuc(a1-4)GlcNAc
# How it was run: as §1
# Fuc(b1-3)GlcNAc = target: Fuc(b1-3)GlcNAc
# How it was run: as §1
# Gal(a1-2)Gal = target: Gal(a1-2)Gal
# How it was run: as §1
# Gal(a1-3)Gal = target: Gal(a1-3)Gal
# How it was run: as §1
# Gal(a1-3)Gal(b1-3)GlcNAc = target: Gal(a1-3)Gal(b1-3)GlcNAc
# How it was run: as §1
# [18] = target: Gal(a1-3)Gal(b1-3)GlcNAc(b1-2)Man
# How it was run: as §1
# [19] = target: Gal(a1-3)Gal(b1-3)GlcNAc(b1-2)Man(a1-3)[Gal(a1-3)Gal(b1-3)GlcNAc(b1-2)Man(a1-6)]Man(b1-4)GlcNAc(b1-4)GlcNAc
# How it was run: as §1
# [20] = target: Gal(a1-3)Gal(b1-3)GlcNAc(b1-3)GalNAc
# How it was run: as §1
# [21] = target: Gal(a1-3)Gal(b1-3)GlcNAc(b1-6)GalNAc
# How it was run: as §1
# [22] = target: Gal(a1-3)Gal(b1-3)[Fuc(a1-4)]GlcNAc(b1-2)Man(a1-3)[Gal(a1-3)Gal(b1-3)[Fuc(a1-4)]GlcNAc(b1-2)Man(a1-6)]Man(b1-4)GlcNAc(b1-4)GlcNAc
# How it was run: as §1
# Gal(a1-3)Gal(b1-4)Glc = target: Gal(a1-3)Gal(b1-4)Glc
# How it was run: as §1
# Gal(a1-3)Gal(b1-4)GlcNAc = target: Gal(a1-3)Gal(b1-4)GlcNAc
# How it was run: as §1
# [23] = target: Gal(a1-3)Gal(b1-4)GlcNAc(b1-2)Man
# How it was run: as §1
# [24] = target: Gal(a1-3)Gal(b1-4)GlcNAc(b1-2)Man(a1-3)[Gal(a1-3)Gal(b1-4)GlcNAc(b1-2)Man(a1-6)]Man(b1-4)GlcNAc(b1-4)GlcNAc
# How it was run: as §1
# [25] = target: Gal(a1-3)Gal(b1-4)GlcNAc(b1-3)GalNAc
# How it was run: as §1
# [26] = target: Gal(a1-3)Gal(b1-4)GlcNAc(b1-6)GalNAc
# How it was run: as §1
# [27] = target: Gal(a1-3)Gal(b1-4)[Fuc(a1-3)]GlcNAc
# How it was run: as §1
# [28] = target: Gal(a1-3)Gal(b1-4)[Fuc(a1-3)]GlcNAc(b1-2)Man(a1-3)[Gal(a1-3)Gal(b1-4)[Fuc(a1-3)]GlcNAc(b1-2)Man(a1-6)]Man(b1-4)GlcNAc(b1-4)GlcNAc
# How it was run: as §1
# Gal(a1-3)GalNAc = target: Gal(a1-3)GalNAc
# How it was run: as §1
# [29] = target: Gal(a1-3)[Gal(a1-4)]Gal(b1-4)GlcNAc
# How it was run: as §1
# [30] = target: Gal(a1-4)Gal(b1-3)GlcNAc(b1-2)Man(a1-3)[Gal(a1-4)Gal(b1-3)GlcNAc(b1-2)Man(a1-6)]Man(b1-4)GlcNAc(b1-4)GlcNAc
# How it was run: as §1
# Gal(a1-4)Gal(b1-4)Glc = target: Gal(a1-4)Gal(b1-4)Glc
# How it was run: as §1
# Gal(a1-4)Gal(b1-4)GlcNAc = target: Gal(a1-4)Gal(b1-4)GlcNAc
# How it was run: as §1
# [31] = target: Gal(a1-4)Gal(b1-4)GlcNAc(b1-2)Man(a1-3)[Gal(a1-4)Gal(b1-4)GlcNAc(b1-2)Man(a1-6)]Man(b1-4)GlcNAc(b1-4)GlcNAc
# How it was run: as §1
# [32] = target: Gal(a1-4)Gal(b1-4)GlcNAc(b1-3)Gal(b1-4)Glc
# How it was run: as §1
# Gal(a1-4)GlcNAc = target: Gal(a1-4)GlcNAc
# How it was run: as §1
# Gal(a1-6)Glc = target: Gal(a1-6)Glc
# How it was run: as §1
binder,measurement,setting,value
Thrombomodulin Lectin (Mus musculus) (protein) LSALAKLQPTGSQCVEHECFALFQGPATFLDASQACQRLQGHLMTVRSSVAADVISLLLSQSSMDLGPWIGLQLPQGCDDPVHLGPLRGFQWVTGDNHTSYSRWARPNDQTAPLCGPLCVTVSTATEAAPGEPAWEEKPCETETQGFLCEFYFTASCRVDPIPVREDTKEEEGAGEPPVSPTPGSPTGPPSARPVLDEPRVPITQNPCPPLKECPPCAAPDLEGGPSVFIFPPKIKDVLMISLSPMVTCVVVDVSEDDPDVQISWFVNNVEVHTAQTQTHREDYNSTLRVVSALPIQHQDWMSGKAFACAVNNRALPSPIEKTISKPRGPVRAPQVYVLPPPAEEMTKKEFSLTCMITGFLPAEIAVDWTSNGRTEQNYKNTATVLDSDGSYFMYSKLRVQKSTWERGSLFACSVVHEGLHNHLTTKTISRSLGK,glycan array binding signal (z-score),Fuc(a1-3)GlcNAc,-0.801
same,glycan array binding signal (z-score),[1],-0.024
same,glycan array binding signal (z-score),[2],-0.036
same,glycan array binding signal (z-score),[3],-1.06
same,glycan array binding signal (z-score),[4],-0.81
same,glycan array binding signal (z-score),[5],0.391
same,glycan array binding signal (z-score),[6],-1.17
same,glycan array binding signal (z-score),[7],-0.871
same,glycan array binding signal (z-score),[8],0.223
same,glycan array binding signal (z-score),[9],-0.437
same,glycan array binding signal (z-score),[10],-1.39
same,glycan array binding signal (z-score),[11],0.613
same,glycan array binding signal (z-score),[12],0.604
same,glycan array binding signal (z-score),[13],-0.048
same,glycan array binding signal (z-score),[14],-0.275
same,glycan array binding signal (z-score),[15],-2.09
same,glycan array binding signal (z-score),[16],0.174
same,glycan array binding signal (z-score),[17],-0.379
same,glycan array binding signal (z-score),Fuc(a1-4)GlcNAc,-0.618
same,glycan array binding signal (z-score),Fuc(b1-3)GlcNAc,0.263
same,glycan array binding signal (z-score),Gal(a1-2)Gal,-0.433
same,glycan array binding signal (z-score),Gal(a1-3)Gal,1.79
same,glycan array binding signal (z-score),Gal(a1-3)Gal(b1-3)GlcNAc,0.029
same,glycan array binding signal (z-score),[18],-0.553
same,glycan array binding signal (z-score),[19],0.4
same,glycan array binding signal (z-score),[20],-0.619
same,glycan array binding signal (z-score),[21],0.696
same,glycan array binding signal (z-score),[22],1.1
same,glycan array binding signal (z-score),Gal(a1-3)Gal(b1-4)Glc,0.642
same,glycan array binding signal (z-score),Gal(a1-3)Gal(b1-4)GlcNAc,1.5
same,glycan array binding signal (z-score),[23],-1.07
same,glycan array binding signal (z-score),[24],0.517
same,glycan array binding signal (z-score),[25],-1.6
same,glycan array binding signal (z-score),[26],0.246
same,glycan array binding signal (z-score),[27],-1.68
same,glycan array binding signal (z-score),[28],1.12
same,glycan array binding signal (z-score),Gal(a1-3)GalNAc,-0.598
same,glycan array binding signal (z-score),[29],-0.316
same,glycan array binding signal (z-score),[30],0.263
same,glycan array binding signal (z-score),Gal(a1-4)Gal(b1-4)Glc,0.161
same,glycan array binding signal (z-score),Gal(a1-4)Gal(b1-4)GlcNAc,0.128
same,glycan array binding signal (z-score),[31],0.913
same,glycan array binding signal (z-score),[32],0.021
same,glycan array binding signal (z-score),Gal(a1-4)GlcNAc,0.928
same,glycan array binding signal (z-score),Gal(a1-6)Glc,-0.425

# 13 successive entries from above, quoted:
binder,measurement,setting,value
Thrombomodulin Lectin (Mus musculus) (protein) LSALAKLQPTGSQCVEHECFALFQGPATFLDASQACQRLQGHLMTVRSSVAADVISLLLSQSSMDLGPWIGLQLPQGCDDPVHLGPLRGFQWVTGDNHTSYSRWARPNDQTAPLCGPLCVTVSTATEAAPGEPAWEEKPCETETQGFLCEFYFTASCRVDPIPVREDTKEEEGAGEPPVSPTPGSPTGPPSARPVLDEPRVPITQNPCPPLKECPPCAAPDLEGGPSVFIFPPKIKDVLMISLSPMVTCVVVDVSEDDPDVQISWFVNNVEVHTAQTQTHREDYNSTLRVVSALPIQHQDWMSGKAFACAVNNRALPSPIEKTISKPRGPVRAPQVYVLPPPAEEMTKKEFSLTCMITGFLPAEIAVDWTSNGRTEQNYKNTATVLDSDGSYFMYSKLRVQKSTWERGSLFACSVVHEGLHNHLTTKTISRSLGK,glycan array binding signal (z-score),[14],-0.275
same,glycan array binding signal (z-score),[15],-2.09
same,glycan array binding signal (z-score),[16],0.174
same,glycan array binding signal (z-score),[17],-0.379
same,glycan array binding signal (z-score),Fuc(a1-4)GlcNAc,-0.618
same,glycan array binding signal (z-score),Fuc(b1-3)GlcNAc,0.263
same,glycan array binding signal (z-score),Gal(a1-2)Gal,-0.433
same,glycan array binding signal (z-score),Gal(a1-3)Gal,1.79
same,glycan array binding signal (z-score),Gal(a1-3)Gal(b1-3)GlcNAc,0.029
same,glycan array binding signal (z-score),[18],-0.553
same,glycan array binding signal (z-score),[19],0.4
same,glycan array binding signal (z-score),[20],-0.619
same,glycan array binding signal (z-score),[21],0.696
